PubChem BioAssay AID743454 – Peter MacCallum Cancer Centre – 2014
The deposit covers about 18,000 reagents; this is a random part of them. Over the whole deposit, 450 (2.5%) were called active. 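Single biological run; no consistent viability z cut-off exists, so the class columns, not z-scores, define the calls.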 The numbers tell different reagents against one gene apart.

- Purpose: 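Genes whose loss kills vorinostat-resistant colon cancer cells under vorinostat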 (primary screen)
- Cell system: human HCT116-VR colon cancer cells, selected for vorinostat resistance
- Reagents: siRNA pool against human genes, 40 nM siRNA pool
- Timing: vorinostat for 24 h, read-out about 72 h after transfection
- Treatment: vorinostat at 2.5 µM final
- Read-out: 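Cell viability by CellTiter-Fluor and caspase 3/7 activity by luminescence, each scaled to mock wells per plate, duplicates averaged, then robust z-scored over all plates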
- Scale: viability robust z-score: higher = more viable cells than screen typical; caspase robust z-score: higher = more caspase 3/7 activity than screen typical
- Hit rule: 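a knock-down is a hit when classed RV1 or RV2 for lowered viability, or CA1 or CA2 for caspase activation; those lethal without drug were dropped; hits were retested singly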

{"target gene": "TRPV6", "reagent no.": 1, "viability hit class": "no change", "caspase hit class": "no change", "viability robust z-score": -0.04, "caspase robust z-score": 0.52, "activity call": "inactive"}
{"target gene": "ENPP4", "reagent no.": 1, "viability hit class": "no change", "caspase hit class": "no change", "viability robust z-score": -0.02, "caspase robust z-score": -0.57, "activity call": "inactive"}
{"target gene": "POT1", "reagent no.": 1, "viability hit class": "no change", "caspase hit class": "no change", "viability robust z-score": -2.69, "caspase robust z-score": 1.64, "activity call": "inactive"}
{"target gene": "FEM1C", "reagent no.": 1, "viability hit class": "no change", "caspase hit class": "no change", "viability robust z-score": -0.48, "caspase robust z-score": 1.9, "activity call": "inactive"}
{"target gene": "TRIP6", "reagent no.": 1, "viability hit class": "no change", "caspase hit class": "no change", "viability robust z-score": 0.32, "caspase robust z-score": -0.08, "activity call": "inactive"}
{"target gene": "ITGA6", "reagent no.": 1, "viability hit class": "no change", "caspase hit class": "no change", "viability robust z-score": 0.52, "caspase robust z-score": -0.68, "activity call": "inactive"}
{"target gene": "SLC22A24", "reagent no.": 1, "viability hit class": "no change", "caspase hit class": "no change", "viability robust z-score": 0.24, "caspase robust z-score": 0.82, "activity call": "inactive"}
{"target gene": "ICOSLG", "reagent no.": 1, "viability hit class": "no change", "caspase hit class": "no change", "viability robust z-score": -0.26, "caspase robust z-score": 0.22, "activity call": "inactive"}
{"target gene": "RNF213", "reagent no.": 1, "viability hit class": "no change", "caspase hit class": "no change", "viability robust z-score": -1.27, "caspase robust z-score": -1.03, "activity call": "inactive"}
{"target gene": "RNF213", "reagent no.": 2, "viability hit class": "no change", "caspase hit class": "no change", "viability robust z-score": 0.82, "caspase robust z-score": -0.25, "activity call": "inactive"}
{"target gene": "GORASP1", "reagent no.": 1, "viability hit class": "no change", "caspase hit class": "no change", "viability robust z-score": -0.29, "caspase robust z-score": 0.26, "activity call": "inactive"}
{"target gene": "FMO2", "reagent no.": 1, "viability hit class": "no change", "caspase hit class": "no change", "viability robust z-score": 0.7, "caspase robust z-score": 0.7, "activity call": "inactive"}
{"target gene": "FGF18", "reagent no.": 1, "viability hit class": "no change", "caspase hit class": "no change", "viability robust z-score": 0.19, "caspase robust z-score": 0.44, "activity call": "inactive"}
{"target gene": "YIPF7", "reagent no.": 1, "viability hit class": "no change", "caspase hit class": "no change", "viability robust z-score": -0.72, "caspase robust z-score": -0.76, "activity call": "inactive"}
{"target gene": "TDRD5", "reagent no.": 1, "viability hit class": "no change", "caspase hit class": "no change", "viability robust z-score": 0.8, "caspase robust z-score": 0.98, "activity call": "inactive"}
{"target gene": "SLC47A1", "reagent no.": 1, "viability hit class": "no change", "caspase hit class": "no change", "viability robust z-score": -0.92, "caspase robust z-score": 0.14, "activity call": "inactive"}
{"target gene": "STOX1", "reagent no.": 1, "viability hit class": "no change", "caspase hit class": "no change", "viability robust z-score": 0.82, "caspase robust z-score": -0.24, "activity call": "inactive"}
{"target gene": "PDZRN4", "reagent no.": 1, "viability hit class": "no change", "caspase hit class": "no change", "viability robust z-score": -0.8, "caspase robust z-score": 0.6, "activity call": "inactive"}
{"target gene": "WDR44", "reagent no.": 1, "viability hit class": "no change", "caspase hit class": "no change", "viability robust z-score": 0.66, "caspase robust z-score": -0.33, "activity call": "inactive"}
{"target gene": "SIRT5", "reagent no.": 1, "viability hit class": "no change", "caspase hit class": "no change", "viability robust z-score": 0.27, "caspase robust z-score": 1.46, "activity call": "inactive"}
{"target gene": "PEDS1", "reagent no.": 1, "viability hit class": "no change", "caspase hit class": "no change", "viability robust z-score": 0.74, "caspase robust z-score": -0.32, "activity call": "inactive"}
{"target gene": "MYT1", "reagent no.": 1, "viability hit class": "no change", "caspase hit class": "no change", "viability robust z-score": -0.14, "caspase robust z-score": 0.23, "activity call": "inactive"}
{"target gene": "CAAP1", "reagent no.": 1, "viability hit class": "no change", "caspase hit class": "no change", "viability robust z-score": 0.34, "caspase robust z-score": -0.44, "activity call": "inactive"}
{"target gene": "SEC11C", "reagent no.": 1, "viability hit class": "no change", "caspase hit class": "no change", "viability robust z-score": 0.62, "caspase robust z-score": 0.79, "activity call": "inactive"}
{"target gene": "IL27RA", "reagent no.": 1, "viability hit class": "no change", "caspase hit class": "no change", "viability robust z-score": -1.25, "caspase robust z-score": -0.22, "activity call": "inactive"}
{"target gene": "PDCD10", "reagent no.": 1, "viability hit class": "no change", "caspase hit class": "no change", "viability robust z-score": 1.4, "caspase robust z-score": -0.05, "activity call": "inactive"}
{"target gene": "TELO2", "reagent no.": 1, "viability hit class": "no change", "caspase hit class": "no change", "viability robust z-score": -0.16, "caspase robust z-score": 0.18, "activity call": "inactive"}

An excerpt from above, reduced to “caspase robust z-score”.
RNF213 #2 = -0.25
GORASP1 = 0.26
FMO2 = 0.7
